PMC10598267
No constants are given. Whether binding was seen depends on the method and setting. Binding seen in cells or lysates may run through a third protein. These calls come from enrichment with a bait or labelling near it, and not all partners need be listed.

Amino acid sequences for entries named in this document (tags omitted).
UniProt Q8WW22: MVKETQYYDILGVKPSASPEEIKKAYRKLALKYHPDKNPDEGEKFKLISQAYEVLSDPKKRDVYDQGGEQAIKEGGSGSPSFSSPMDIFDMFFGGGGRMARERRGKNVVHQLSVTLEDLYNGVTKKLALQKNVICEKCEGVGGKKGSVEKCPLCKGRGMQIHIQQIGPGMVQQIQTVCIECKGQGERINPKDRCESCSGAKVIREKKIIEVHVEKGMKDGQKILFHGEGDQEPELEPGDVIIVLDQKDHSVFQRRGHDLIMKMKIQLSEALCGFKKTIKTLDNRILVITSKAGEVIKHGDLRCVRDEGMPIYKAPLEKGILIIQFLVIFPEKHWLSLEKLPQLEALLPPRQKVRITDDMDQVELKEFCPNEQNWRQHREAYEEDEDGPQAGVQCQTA
UniProt P35579: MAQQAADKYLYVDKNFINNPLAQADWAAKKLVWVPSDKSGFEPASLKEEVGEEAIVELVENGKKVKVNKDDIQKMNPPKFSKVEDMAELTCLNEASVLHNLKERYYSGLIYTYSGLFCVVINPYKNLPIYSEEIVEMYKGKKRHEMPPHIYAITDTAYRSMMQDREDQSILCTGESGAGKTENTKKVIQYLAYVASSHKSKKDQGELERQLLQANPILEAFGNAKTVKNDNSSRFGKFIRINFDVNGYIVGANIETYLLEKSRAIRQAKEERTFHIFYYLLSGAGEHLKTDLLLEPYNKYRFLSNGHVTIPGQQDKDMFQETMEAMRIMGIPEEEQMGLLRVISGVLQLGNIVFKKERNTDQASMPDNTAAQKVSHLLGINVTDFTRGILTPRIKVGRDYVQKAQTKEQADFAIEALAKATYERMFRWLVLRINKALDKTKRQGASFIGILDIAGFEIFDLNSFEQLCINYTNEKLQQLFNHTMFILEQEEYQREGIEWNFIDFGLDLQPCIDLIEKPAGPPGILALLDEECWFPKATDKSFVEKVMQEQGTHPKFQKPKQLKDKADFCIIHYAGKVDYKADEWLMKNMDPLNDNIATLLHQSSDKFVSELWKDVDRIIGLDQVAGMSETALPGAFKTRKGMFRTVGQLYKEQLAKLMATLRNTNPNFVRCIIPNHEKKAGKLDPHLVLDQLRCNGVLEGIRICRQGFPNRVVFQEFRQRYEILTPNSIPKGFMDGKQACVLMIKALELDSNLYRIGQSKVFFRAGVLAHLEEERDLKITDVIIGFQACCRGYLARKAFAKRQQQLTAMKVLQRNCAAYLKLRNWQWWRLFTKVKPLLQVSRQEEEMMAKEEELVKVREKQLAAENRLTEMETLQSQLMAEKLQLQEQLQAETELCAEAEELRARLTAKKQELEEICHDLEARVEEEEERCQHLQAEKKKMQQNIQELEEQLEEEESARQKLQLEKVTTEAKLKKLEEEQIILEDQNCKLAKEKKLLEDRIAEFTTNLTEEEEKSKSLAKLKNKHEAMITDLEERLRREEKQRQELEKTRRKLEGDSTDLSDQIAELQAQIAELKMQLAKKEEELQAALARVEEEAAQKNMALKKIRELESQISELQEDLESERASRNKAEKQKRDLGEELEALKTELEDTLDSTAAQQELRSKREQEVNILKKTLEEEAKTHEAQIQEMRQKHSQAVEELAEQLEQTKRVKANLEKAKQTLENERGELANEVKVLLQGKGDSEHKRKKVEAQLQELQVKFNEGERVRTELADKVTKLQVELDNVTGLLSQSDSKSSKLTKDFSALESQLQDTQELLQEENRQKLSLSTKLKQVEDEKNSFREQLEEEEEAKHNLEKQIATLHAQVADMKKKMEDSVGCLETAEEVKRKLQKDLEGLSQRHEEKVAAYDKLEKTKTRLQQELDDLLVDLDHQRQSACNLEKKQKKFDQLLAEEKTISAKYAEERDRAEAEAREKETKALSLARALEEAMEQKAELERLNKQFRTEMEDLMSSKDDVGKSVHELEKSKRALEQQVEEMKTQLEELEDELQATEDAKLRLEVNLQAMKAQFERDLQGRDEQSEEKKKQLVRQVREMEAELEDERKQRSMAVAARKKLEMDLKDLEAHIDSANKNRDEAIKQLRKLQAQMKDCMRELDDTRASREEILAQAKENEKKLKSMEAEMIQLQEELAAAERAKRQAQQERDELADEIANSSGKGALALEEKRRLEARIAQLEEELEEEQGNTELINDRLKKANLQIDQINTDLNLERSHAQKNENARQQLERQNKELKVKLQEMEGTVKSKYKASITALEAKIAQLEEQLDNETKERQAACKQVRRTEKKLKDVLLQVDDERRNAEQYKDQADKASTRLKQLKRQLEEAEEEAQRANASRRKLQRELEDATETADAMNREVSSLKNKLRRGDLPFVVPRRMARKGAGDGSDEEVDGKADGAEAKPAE
UniProt Q13200: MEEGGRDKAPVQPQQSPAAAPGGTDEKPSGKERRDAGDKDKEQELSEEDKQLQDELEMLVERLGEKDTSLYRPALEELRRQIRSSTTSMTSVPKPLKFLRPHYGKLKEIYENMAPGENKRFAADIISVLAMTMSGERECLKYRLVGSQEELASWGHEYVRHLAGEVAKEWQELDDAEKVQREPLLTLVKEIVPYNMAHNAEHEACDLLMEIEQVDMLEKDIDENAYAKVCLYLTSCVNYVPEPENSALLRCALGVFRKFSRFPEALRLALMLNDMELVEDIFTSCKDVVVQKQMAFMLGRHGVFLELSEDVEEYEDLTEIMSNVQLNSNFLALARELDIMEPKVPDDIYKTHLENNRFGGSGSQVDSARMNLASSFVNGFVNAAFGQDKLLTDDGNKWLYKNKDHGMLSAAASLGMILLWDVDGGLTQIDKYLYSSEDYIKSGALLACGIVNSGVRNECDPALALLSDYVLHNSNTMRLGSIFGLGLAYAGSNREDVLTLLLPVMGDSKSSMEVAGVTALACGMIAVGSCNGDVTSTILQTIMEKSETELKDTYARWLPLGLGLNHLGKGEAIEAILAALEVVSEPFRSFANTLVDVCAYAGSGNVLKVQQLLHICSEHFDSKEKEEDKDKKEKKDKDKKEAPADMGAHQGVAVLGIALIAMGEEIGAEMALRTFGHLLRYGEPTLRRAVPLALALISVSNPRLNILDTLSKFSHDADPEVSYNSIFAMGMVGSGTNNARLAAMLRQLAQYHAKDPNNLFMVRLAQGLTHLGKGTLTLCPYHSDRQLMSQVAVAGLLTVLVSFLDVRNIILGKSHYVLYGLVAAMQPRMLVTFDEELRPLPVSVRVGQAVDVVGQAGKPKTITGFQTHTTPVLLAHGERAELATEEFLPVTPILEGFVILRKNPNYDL

Target: HA-tagged DNAJA4 (DNAJ Heat Shock Protein Family (HSP40) Member A4) (UniProt Q8WW22)
Experiment: affinity purification with mass spectrometry; SUNE1 cells transiently transfected with HA-tagged DNAJA4; lysate incubated with anti-HA antibody or IgG overnight at 4 °C, Protein A/G magnetic beads; SDS-PAGE, silver staining, LC-MS/MS

binding	Substance
binds	MYH9 (endogenous) (from UniProt P35579 1-1960)
binds	PSMD2 (endogenous) (from UniProt Q13200 1-908)
